{"source": "patent US11850247B2", "about": "“Antiviral compounds” (REGENTS OF THE UNIVERSITY OF MINNESOTA, priority 2020, dated 2023)", "test": "Microsomal stability assay, human liver microsomes", "type": "in vitro ADME", "settings": "1 μM compound, NADPH, without Cobicistat", "method": "The in vitro microsomal stability assay was conducted in duplicate in mouse and human liver microsomal systems, which were supplemented with nicotinamide adenine dinucleotide phosphate (NADPH) as a cofactor. […] The reaction was initiated by addition of 1 mM NADPH, followed by incubation at 37° C. A negative control was performed in parallel in the absence of NADPH to measure any chemical instability or non-NADPH dependent enzymatic degradation for each compound. At various time points (0, 5, 15, 30, and 60 minutes), 1 volume of reaction aliquot was taken and quenched with 3 volumes of acetonitrile containing an appropriate internal standard and 0.1% formic acid. The samples were then vortexed and centrifuged at 15,000 rpm for 5 minutes at 4° C. The supernatants were collected and analyzed by LC-MS/MS to determine the in vitro metabolic half-life (t1/2).", "note": "At least one compound was matched to its structure with a doubt left.", "data": [{"smiles": "Cc1[nH]c2ccccc2c1CC(=O)N[C@@H](Cc1ccccc1)C(=O)N(C)c1ccccc1", "note": "[PF-74, reference compound]", "values": [{"measurement": "HLM half-life (t1/2)", "result": 42, "unit": "s"}]}]}
